Test results taken from PubChem BioAssay AID1671190 (National Center for Advancing Translational Sciences (NCATS), 2021).
Among all 580,000 compounds or so, about 6,100 (1.1%) were called active. Inconclusive results, whose numbers are uncertain, are shown with a selection of clear calls. The call rests on the fitted dose curve; in most records, active means well fitted inhibition curve with a large enough effect; inconclusive means small, poorly fitted or top-dose-only effect, or another doubt; inactive means no such curve, though single readings can be large or run the other way. Potencies of inconclusive entries are doubtful fits and often do not repeat.

Chains of the proteins cited; added tags and fusions are not shown. Lines headed by an entry give the natural chain unless they say otherwise; changes in a name come on top.
UniProt P18054: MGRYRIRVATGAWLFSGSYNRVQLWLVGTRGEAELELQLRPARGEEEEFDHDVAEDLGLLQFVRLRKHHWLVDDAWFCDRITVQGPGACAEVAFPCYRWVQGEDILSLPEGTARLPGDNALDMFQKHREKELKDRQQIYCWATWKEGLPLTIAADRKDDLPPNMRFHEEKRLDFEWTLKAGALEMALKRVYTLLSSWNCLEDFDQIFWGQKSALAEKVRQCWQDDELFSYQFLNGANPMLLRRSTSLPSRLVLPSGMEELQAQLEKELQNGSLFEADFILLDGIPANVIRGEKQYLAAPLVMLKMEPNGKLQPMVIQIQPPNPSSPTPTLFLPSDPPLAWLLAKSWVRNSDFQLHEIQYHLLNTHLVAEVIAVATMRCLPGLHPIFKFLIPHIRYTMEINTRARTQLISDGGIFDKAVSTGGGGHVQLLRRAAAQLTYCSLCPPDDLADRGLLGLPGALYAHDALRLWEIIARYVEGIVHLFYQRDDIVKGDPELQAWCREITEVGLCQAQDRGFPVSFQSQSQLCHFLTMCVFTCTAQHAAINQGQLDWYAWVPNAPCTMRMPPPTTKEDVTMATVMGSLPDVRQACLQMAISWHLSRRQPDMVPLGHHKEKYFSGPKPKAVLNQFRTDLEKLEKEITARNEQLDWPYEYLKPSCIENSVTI

These compounds were tested against Polyunsaturated fatty acid lipoxygenase ALOX12 (Homo sapiens) (UniProt P18054) (assay: Primary qHTS assay for inhibitors of human arachidonate 12S-lipoxygenase (ALOX12): Round 2). Details: purified 12hLO, xylenol orange hydroperoxide absorbance; activity change, negative = inhibition: at 108 µM (top of the series) unless noted.
Outline: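 Purified human 12hLO at 150 nM in 25 mM Hepes, 0.01% Triton X-100, pH 7.0, preincubated 15 min at room temperature with compound. Reaction started with 40 uM arachidonic acid, 30 min at room temperature. Hydroperoxide measured by Fe-xylenol orange, 573/405 nm absorbance ratio.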
On the % scale 0 is the no-effect control and ±100 the full control effect; potency means the concentration at half of the fitted maximal effect.

SMILES	Potency	activity change, negative = inhibition
CN1CCc2nc(SCC(=O)Nc3cccc(F)c3)c(C#N)c(-c3cccs3)c2C1	inconclusive: 44.7 µM [inhibitor, partial curve, poor fit]	–
CCN(CC)CCNC(=O)c1ccc(NC(=O)c2cn(-c3ccccc3)nc2-c2cccs2)cc1	inconclusive: 39.8 µM [inhibitor, partial curve, poor fit]	–
CC(C)C(=O)N(Cc1ccccn1)C1CC1	inactive	–
Cc1ccc(C(=O)N2CCC(n3cc(-c4nc(-c5ccccc5)no4)nn3)CC2)s1	inconclusive: 44.7 µM [inhibitor, partial curve]	–
O=C(CSc1ccccc1)N1CCN(S(=O)(=O)c2ccccc2F)CC1	inactive	–
OC(c1ccc(F)cc1)c1nc(-c2ccoc2)cs1 (stereo not drawn)	inconclusive: 35.5 µM [inhibitor, partial curve]	–
COc1ccc(N(C)C(=O)c2ccc3c(Cl)c4c(nc3c2)CCCC4)c(OC)c1	inactive	–
Cc1ccccc1NC(=O)c1cc2ccccc2o1	inactive	–
Cc1c(CC(=O)NCc2ccco2)c(=O)oc2c(C)c(O)ccc12	inconclusive: 126 µM [inhibitor, single point]	–
NC(=NC(=O)c1ccccc1)N1CCN(C(c2ccccc2)c2ccccc2)CC1	inactive	–
Cc1ccc2[nH]c(=O)c3cc(C(=O)NC(C)C)sc3c2c1	inconclusive: 89.1 µM [inhibitor, partial curve, poor fit]	–
O=C(NCc1ccccc1F)[C@H]1CN(Cc2ccccc2)C[C@H]1C(=O)O	inconclusive: 14.1 µM [inhibitor, partial curve, poor fit]	–
O=C(NNC(=O)c1csc(-c2cccs2)n1)c1ccc(Cl)cc1	inconclusive: 39.8 µM [inhibitor, single point]	–
CC1(C)CN(c2cccc(Br)c2)C1=O	inconclusive: 141 µM [inhibitor, single point]	–
Cc1ccc(C(=O)c2cc([N+](=O)[O-])ccc2N2CCOCC2)cc1C	inconclusive: 50.1 µM [inhibitor, partial curve]	–
Cc1cccc(/N=C/c2c(O)cc(C)oc2=O)n1	inconclusive: 5.62 µM [inhibitor, full curve, poor fit]	–
Cc1cc(F)ccc1S(=O)(=O)N1CCC2(CC1)OCCN2S(=O)(=O)c1cccs1	inactive	–
CCCc1cc(C(=O)Cc2ccccn2)c(O)cc1O	inconclusive: 4.47 µM [inhibitor, full curve, poor fit]	–
Cc1ccc(S(=O)(=O)N2CCN(C(=O)Cc3ccccc3)CC2)cc1C	inconclusive: 35.5 µM [inhibitor, single point]	–
O=C(OCCN1CCOCC1)c1ccccc1	inconclusive: 0.398 µM [inhibitor, full curve, poor fit]	–
CC(C)c1ccc(NC(=O)COC(=O)C2CCN(c3ccc(C(F)(F)F)cn3)CC2)cc1	inactive	–
O=C1CCC(=O)N(O)CCCCCNC(=O)CCC(=O)N(O)CCCCNC(=O)CCC(=O)N(O)CCCCCN1	inconclusive: 39.8 µM [inhibitor, partial curve, poor fit]	–
O=S(=O)([N-]c1nc2ccccc2nc1-[n+]1ccccc1)c1ccccc1	inconclusive: 0.0794 µM [inhibitor, full curve, poor fit]	–

SMILES	Potency	activity change, negative = inhibition
O=C1CNC(=S)N1c1nc(-c2ccccc2)cs1	inactive	–
N#C/C(=C/c1ccc(-c2ccccc2)cc1)C(=O)c1ccsc1	inconclusive: 39.8 µM [inhibitor, single point]	–
CC(CCc1ccccc1)NC(=O)c1ccc(Cn2ccn3nc4c(c3c2=O)CCCC4)cc1 (stereo not drawn)	inconclusive: 56.2 µM [inhibitor, partial curve, poor fit]	–
COc1cccc(OC)c1OCCNC[C@@H]1COc2ccccc2O1	inconclusive: 89.1 µM [inhibitor, single point]	–
O=C1N(c2ccccc2)c2ccccc2C12CCN(Cc1ccccc1)C2 (stereo not drawn)	–	inactive: 4.82% [at 6.33 µM]
O=c1[nH]c(-n2cccc2)c(-c2c(-c3ccccc3)[nH]c3[nH]c(=O)[nH]c(=O)c23)c(=O)[nH]1	inconclusive: 31.6 µM [inhibitor, partial curve]	–
Cc1ccc(/C(N)=N/OC(=O)CCc2ccccc2)cc1	inactive	–
Cc1cc(C)cc(-n2c(SCC(=O)Nc3ccccc3F)nc3c(oc4ccccc43)c2=O)c1	inconclusive: 100 µM [inhibitor, partial curve, poor fit]	–
COc1cccc(NC(=O)[C@H](Cc2ccccc2)n2c(=O)[nH]c3ccccc3c2=O)c1	inactive	–
COc1ccccc1C(=O)N1CCC2(CC1)C(=NC1CCCCC1)NC(=O)N2c1cc(F)cc(F)c1	inconclusive: 100 µM [inhibitor, partial curve, poor fit]	–
CCOc1ccc(NC(=O)c2cccc3c(=O)c4c([nH]c23)CCCC4)cc1	inactive	–
Cc1cnc2c(S(=O)(=O)NCCCN3CCCC3)cccc2c1	inactive	–
O=C(CS(=O)(=O)c1ccc(Cl)cc1)Nc1nc2ccc(Br)cc2s1	inconclusive: 100 µM [inhibitor, partial curve, poor fit]	–
Cn1c(=O)c2c(nc(N3CCN(C(=O)c4ccco4)CC3)n2Cc2ccc(F)cc2)n(C)c1=O	inconclusive: 50.1 µM [inhibitor, partial curve, poor fit]	–
OC[C@@H]1[C@@H](c2ccc(Cl)cc2)C(c2ccccc2)=NN1c1ccccc1	inconclusive: 50.1 µM [inhibitor, partial curve, poor fit]	–
Cc1ccc(-n2c(C)nc3ccsc3c2=O)cc1	inconclusive: 100 µM [inhibitor, partial curve, poor fit]	–
Cc1ccc(C(=O)N/C(=C\c2ccco2)C(=O)N2CCCCC2)cc1	inconclusive: 89.1 µM [inhibitor, partial curve, poor fit]	–
O=C1CCC2(CCNCC2)CCN1Cc1ccccc1	inconclusive: 39.8 µM [inhibitor, single point]	–
COCC(=O)NC1CCN(c2nc3ncccc3o2)CC1	inactive	–
C/C(=N\NC(N)=S)C1CCCCCCCCCCC1	inactive	–
Cc1ccc(-c2cc(C(=O)OCc3ccc(-c4ccccc4)cc3)c3ccccc3n2)cc1	inconclusive: 28.2 µM [inhibitor, single point]	–
CC(=O)Nc1ccc(-c2ccnc3c2CC(C(=O)Nc2cccc(Oc4ccccc4)c2)O3)cc1 (stereo not drawn)	inconclusive: 141 µM [inhibitor, partial curve, poor fit]	–
COC(=O)C1=NNC(C(=O)c2ccco2)C1c1ccccc1 (stereo not drawn)	inconclusive: 44.7 µM [inhibitor, partial curve, poor fit]	–

SMILES	Potency	activity change, negative = inhibition
CCOc1ccc(C(=O)NC2CCN(c3cc(-c4ccccc4)[nH]n3)C2)cc1 (stereo not drawn)	inactive	–
CCc1ccc(C(O)c2ncc(-c3ccc(Cl)cc3)[nH]2)cc1 (stereo not drawn)	inactive	–
CCOC(=O)c1c(NC(=O)OC)sc2c1CCC2	inactive	–
O=C(Nc1ccccc1N1CCOCC1)c1ccc2nc[nH]c2c1	inactive	–
Clc1ccc(Nc2ncnc3ccc(Br)cc23)cc1	inconclusive: 50.1 µM [inhibitor, partial curve, poor fit]	–
CCCC(c1nnnn1CS(=O)(=O)c1ccc(C)cc1)N1CCN(C2CCCC2)CC1 (stereo not drawn)	inconclusive: 12.6 µM [inhibitor, full curve]	–
Clc1ccc(-n2nnnc2-c2ccccc2)cc1	inactive	–
CCOC(=O)c1ccc(NC(=O)CSc2nnc(-c3cccs3)n2C)cc1	inconclusive: 1.78 µM [inhibitor, full curve, poor fit]	–
COc1ccccc1/C=C/C=N/n1c(-c2ccc(Cl)cc2)n[nH]c1=S	inconclusive: 126 µM [inhibitor, partial curve, poor fit]	–
CCN(C(=O)CN1CCN(c2ccccc2)CC1)c1c(N)n(Cc2ccccc2)c(=O)[nH]c1=O	inconclusive: 31.6 µM [inhibitor, single point]	–
Cc1ccc(S(=O)(=O)NCCC(=O)N2CCN(c3cccc(Cl)c3)CC2)cc1C	inconclusive: 100 µM [inhibitor, single point]	–
CC1(CCCCN2CCOCC2)COc2ccc(C(=O)NCc3ccc(F)cc3)cc2N1 (stereo not drawn)	inconclusive: 39.8 µM [inhibitor, partial curve]	–
O=C(NC1CCCCC1)c1ccc(-c2ccccc2F)o1	inconclusive: 8.91 µM [inhibitor, full curve, poor fit]	–
CC(C)c1ccccc1NC(=O)CCn1cnc2c1c(=O)n(C)c(=O)n2C	inactive	–
COc1ccc2nc(Cl)cc(Cl)c2c1	inactive	–
CC(NC(=O)/C(C#N)=C\c1ccccc1OC(F)F)c1ccccc1 (stereo not drawn)	inconclusive: 10 µM [inhibitor, full curve]	–
O=S(=O)(Nc1nc2ccccc2nc1NCc1ccc(F)cc1)c1ccc(F)cc1	inactive	–
C=CCNc1nc(C(=O)OC(C)C(=O)NCC(=O)Nc2c(C)cccc2C)cs1 (stereo not drawn)	inconclusive: 39.8 µM [inhibitor, partial curve, poor fit]	–
O=C(NCCN1CCC(n2c(=O)[nH]c3ccccc32)CC1)c1cccc(Cl)c1	inconclusive: 44.7 µM [inhibitor, partial curve, poor fit]	–
CCN(CC)c1ccc(NC(=S)Nc2ccc(F)cc2)cc1	inconclusive: 89.1 µM [inhibitor, single point]	–
CCC(CC)C(=O)Nc1sc2c(c1C#N)CCC(C)C2 (stereo not drawn)	inactive	–
CC(=O)Nc1cccc(NC(=O)CSc2nc(C)c(C)c(C)c2C#N)c1	inconclusive: 79.4 µM [inhibitor, partial curve, poor fit]	–

Filtered by structure, the compounds so far containing fluorine (14)
SMILES	Potency	activity change, negative = inhibition
CN1CCc2nc(SCC(=O)Nc3cccc(F)c3)c(C#N)c(-c3cccs3)c2C1	inconclusive: 44.7 µM [inhibitor, partial curve, poor fit]	–
O=C(CSc1ccccc1)N1CCN(S(=O)(=O)c2ccccc2F)CC1	inactive	–
OC(c1ccc(F)cc1)c1nc(-c2ccoc2)cs1 (stereo not drawn)	inconclusive: 35.5 µM [inhibitor, partial curve]	–
O=C(NCc1ccccc1F)[C@H]1CN(Cc2ccccc2)C[C@H]1C(=O)O	inconclusive: 14.1 µM [inhibitor, partial curve, poor fit]	–
Cc1cc(F)ccc1S(=O)(=O)N1CCC2(CC1)OCCN2S(=O)(=O)c1cccs1	inactive	–
CC(C)c1ccc(NC(=O)COC(=O)C2CCN(c3ccc(C(F)(F)F)cn3)CC2)cc1	inactive	–
Cc1cc(C)cc(-n2c(SCC(=O)Nc3ccccc3F)nc3c(oc4ccccc43)c2=O)c1	inconclusive: 100 µM [inhibitor, partial curve, poor fit]	–
COc1ccccc1C(=O)N1CCC2(CC1)C(=NC1CCCCC1)NC(=O)N2c1cc(F)cc(F)c1	inconclusive: 100 µM [inhibitor, partial curve, poor fit]	–
Cn1c(=O)c2c(nc(N3CCN(C(=O)c4ccco4)CC3)n2Cc2ccc(F)cc2)n(C)c1=O	inconclusive: 50.1 µM [inhibitor, partial curve, poor fit]	–
CC1(CCCCN2CCOCC2)COc2ccc(C(=O)NCc3ccc(F)cc3)cc2N1 (stereo not drawn)	inconclusive: 39.8 µM [inhibitor, partial curve]	–
O=C(NC1CCCCC1)c1ccc(-c2ccccc2F)o1	inconclusive: 8.91 µM [inhibitor, full curve, poor fit]	–
CC(NC(=O)/C(C#N)=C\c1ccccc1OC(F)F)c1ccccc1 (stereo not drawn)	inconclusive: 10 µM [inhibitor, full curve]	–
O=S(=O)(Nc1nc2ccccc2nc1NCc1ccc(F)cc1)c1ccc(F)cc1	inactive	–
CCN(CC)c1ccc(NC(=S)Nc2ccc(F)cc2)cc1	inconclusive: 89.1 µM [inhibitor, single point]	–

Entries of single compounds, looked up by structure:
O=S(=O)(Nc1nc2ccccc2nc1NCc1ccc(F)cc1)c1ccc(F)cc1 as listed: Potency: inactive
CC(NC(=O)/C(C#N)=C\c1ccccc1OC(F)F)c1ccccc1 (stereo not drawn) as listed: Potency: inconclusive: 10 µM [inhibitor, full curve]
